According to paper PMC3796444 (PLoS ONE, 2013):
Where a chain is given by its changes, count along the chain named. In names and notes the source's numbering stands. These are yes or no findings as the source states them, for the method shown. Some binding calls cover weakened binding; strength is not graded here. Each block holds one molecule with its values, some of them ahead of it.

How the values were obtained:
[1] = molecular target: alanine:glyoxylate aminotransferase, wild type (major allele), recombinant His-tagged (human) (UniProt P21549); assay: dynamic light scattering; holo-AGT, 5 µM AGT (in subunit) and 50 µM PLP, 20 mM Na-Hepes, 200 mM NaCl pH 7.4, 25°C; both purified
[2] = molecular target: alanine:glyoxylate aminotransferase p.I340M, recombinant His-tagged (human) (UniProt P21549); assay: as above
[3] = molecular target: alanine:glyoxylate aminotransferase p.I340M, recombinant His-tagged (human) (UniProt P21549); assay: crystal structure; p.I340M, 1.90 Å, space group P212121; 15% PEG 3350, 0.1 M Bis-Tris pH 5.2, 150 mM Li2SO4, 291 K; both purified
[4] = molecular target: alanine:glyoxylate aminotransferase p.P11L, recombinant His-tagged (human) (UniProt P21549); assay: dynamic light scattering; holo-AGT, 5 µM AGT (in subunit) and 50 µM PLP, 20 mM Na-Hepes, 200 mM NaCl pH 7.4, 25°C; both purified
[5] = molecular target: alanine:glyoxylate aminotransferase p.G170R on the minor allele, recombinant His-tagged (human) (UniProt P21549); assay: as above
[6] = molecular target: alanine:glyoxylate aminotransferase p.R197Q on the minor allele, recombinant His-tagged (human) (UniProt P21549); assay: as above
[7] = molecular target: alanine:glyoxylate aminotransferase p.A368T on the minor allele, recombinant His-tagged (human) (UniProt P21549); assay: as above
[8] = molecular target: alanine:glyoxylate aminotransferase minor allele (p.P11L/I340M), recombinant His-tagged (human) (UniProt P21549); assay: as above
[9] = molecular target: alanine:glyoxylate aminotransferase p.H83R on the minor allele, recombinant His-tagged (human) (UniProt P21549); assay: as above
[10] = molecular target: alanine:glyoxylate aminotransferase p.A295T on the minor allele, recombinant His-tagged (human) (UniProt P21549); assay: as above
[11] = molecular target: alanine:glyoxylate aminotransferase p.P319L on the minor allele, recombinant His-tagged (human) (UniProt P21549); assay: as above
[12] = molecular target: alanine:glyoxylate aminotransferase p.F152I on the minor allele, recombinant His-tagged (human) (UniProt P21549); assay: as above
[13] = molecular target: alanine:glyoxylate aminotransferase p.I244T on the minor allele, recombinant His-tagged (human) (UniProt P21549); assay: as above

Molecule: alanine:glyoxylate aminotransferase, wild type (major allele), recombinant His-tagged (from UniProt P21549 1-392) (enzyme)
- binding [1]: binds

B1: alanine:glyoxylate aminotransferase p.I340M, recombinant His-tagged (enzyme, human)
chain: MASHKLLVTPPKALLKPLSIPNQLLLGPGPSNLPPRIMAAGGLQMIGSMSKDMYQIMDEIKEGIQYVFQTRNPLTLVISGSGHCALEAALVNVLEPGDSFLVGANGIWGQRAVDIGERIGARVHPMTKDPGGHYTLQEVEEGLAQHKPVLLFLTHGESSTGVLQPLDGFGELCHRYKCLLLVDSVASLGGTPLYMDRQGIDILYSGSQKALNAPPGTSLISFSDKAKKKMYSRKTKPFSFYLDIKWLANFWGCDDQPRMYHHTIPVISLYSLRESLALIAEQGLENSWRQHREAAAYLHGRLQALGLQLFVKDPALRLPTVTTVAVPAGYDWRDIVSYVMDHFDIEIMGGLGPSTGKVLRIGLLGCNATRENVDRVTEALRAAL
notes: alanine:glyoxylate aminotransferase (AGT), human, polymorphic variant p.I340M; Crystallised here (PDB 2YOB); source: E. coli BL21 (pCOLDII), purified (IMAC, SEC)
- binding [2]: binds
- binding [3]: binds

B2: alanine:glyoxylate aminotransferase p.P11L, recombinant His-tagged (enzyme, human, UniProt P21549 1-392, looked up)
chain: MASHKLLVTPLKALLKPLSIPNQLLLGPGPSNLPPRIMAAGGLQMIGSMSKDMYQIMDEIKEGIQYVFQTRNPLTLVISGSGHCALEAALVNVLEPGDSFLVGANGIWGQRAVDIGERIGARVHPMTKDPGGHYTLQEVEEGLAQHKPVLLFLTHGESSTGVLQPLDGFGELCHRYKCLLLVDSVASLGGTPLYMDRQGIDILYSGSQKALNAPPGTSLISFSDKAKKKMYSRKTKPFSFYLDIKWLANFWGCDDQPRMYHHTIPVISLYSLRESLALIAEQGLENSWRQHREAAAYLHGRLQALGLQLFVKDPALRLPTVTTVAVPAGYDWRDIVSYVIDHFDIEIMGGLGPSTGKVLRIGLLGCNATRENVDRVTEALRAALQHCPKKKL
notes: alanine:glyoxylate aminotransferase (AGT), human, polymorphic variant p.P11L; source: E. coli BL21 (pCOLDII), purified (IMAC, SEC)
- binding [4]: binds

B6: alanine:glyoxylate aminotransferase minor allele (p.P11L/I340M), recombinant His-tagged (enzyme, human, UniProt P21549 1-392, looked up)
chain: B2 chain with I340M
notes: alanine:glyoxylate aminotransferase (AGT), human, minor allele; also called AGT LM; LM; source: E. coli BL21 (pCOLDII), purified (IMAC, SEC)
- binding [8]: binds

B9: alanine:glyoxylate aminotransferase p.P319L on the minor allele, recombinant His-tagged (enzyme, human, UniProt P21549 1-392, looked up)
chain: B2 chain with P319L, I340M
notes: alanine:glyoxylate aminotransferase (AGT), human, PH1 mutation p.P319L in the minor allele; source: E. coli BL21 (pCOLDII), purified (IMAC, SEC)
- binding [11]: binds

B10: alanine:glyoxylate aminotransferase p.F152I on the minor allele, recombinant His-tagged (enzyme, human, UniProt P21549 1-392, looked up)
chain: B2 chain with F152I, I340M
notes: alanine:glyoxylate aminotransferase (AGT), human, PH1 mutation p.F152I in the minor allele; source: E. coli BL21 (pCOLDII), purified (IMAC, SEC)
- binding [12]: binds

Now from value to molecule:

- binding [5]: binds
B3: alanine:glyoxylate aminotransferase p.G170R on the minor allele, recombinant His-tagged (enzyme, human, UniProt P21549 1-392, looked up)
chain: B2 chain with G170R, I340M
notes: alanine:glyoxylate aminotransferase (AGT), human, PH1 mutation p.G170R in the minor allele (p.P11L, p.G170R and p.I340M in cis); source: E. coli BL21 (pCOLDII), purified (IMAC, SEC)

- binding [6]: binds
B4: alanine:glyoxylate aminotransferase p.R197Q on the minor allele, recombinant His-tagged (enzyme, human, UniProt P21549 1-392, looked up)
chain: B2 chain with R197Q, I340M
notes: alanine:glyoxylate aminotransferase (AGT), human, rare variant p.R197Q in the minor allele; source: E. coli BL21 (pCOLDII), purified (IMAC, SEC)

- binding [7]: binds
B5: alanine:glyoxylate aminotransferase p.A368T on the minor allele, recombinant His-tagged (enzyme, human, UniProt P21549 1-392, looked up)
chain: B2 chain with I340M, A368T
notes: alanine:glyoxylate aminotransferase (AGT), human, PH1 mutation p.A368T in the minor allele; source: E. coli BL21 (pCOLDII), purified (IMAC, SEC)

- binding [9]: binds
B7: alanine:glyoxylate aminotransferase p.H83R on the minor allele, recombinant His-tagged (enzyme, human, UniProt P21549 1-392, looked up)
chain: B2 chain with H83R, I340M
notes: alanine:glyoxylate aminotransferase (AGT), human, PH1 mutation p.H83R in the minor allele; source: E. coli BL21 (pCOLDII), purified (IMAC, SEC)

- binding [10]: binds
B8: alanine:glyoxylate aminotransferase p.A295T on the minor allele, recombinant His-tagged (enzyme, human, UniProt P21549 1-392, looked up)
chain: B2 chain with A295T, I340M
notes: alanine:glyoxylate aminotransferase (AGT), human, rare variant p.A295T in the minor allele; source: E. coli BL21 (pCOLDII), purified (IMAC, SEC)

- binding [13]: binds
B11: alanine:glyoxylate aminotransferase p.I244T on the minor allele, recombinant His-tagged (enzyme, human, UniProt P21549 1-392, looked up)
chain: B2 chain with I244T, I340M
notes: alanine:glyoxylate aminotransferase (AGT), human, PH1 mutation p.I244T in the minor allele (p.P11L, p.I244T and p.I340M in cis); source: E. coli BL21 (pCOLDII), purified (IMAC, SEC)
